Results: publication PMC7819943, “Rice protein-binding microarrays: a tool to detect cis-acting elements near promoter regions in rice”
This is one part of the list.

Amino acid sequences for entries named in this document (tags omitted).
UniProt Q0JBA9, entry or part of it: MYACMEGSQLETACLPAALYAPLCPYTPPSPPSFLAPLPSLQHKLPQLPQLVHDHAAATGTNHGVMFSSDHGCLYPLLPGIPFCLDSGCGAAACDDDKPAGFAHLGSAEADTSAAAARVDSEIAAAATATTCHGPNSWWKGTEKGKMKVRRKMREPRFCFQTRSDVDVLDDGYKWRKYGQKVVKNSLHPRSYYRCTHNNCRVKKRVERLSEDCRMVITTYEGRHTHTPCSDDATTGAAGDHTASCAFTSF

The sequences below were run against OsWRKY34 (Oryza sativa, UniProt Q0JBA9 1-250) (assay: protein-binding microarray (RPBM); PBS, 2% BSA, 51.3 ng/ul salmon testes DNA, 50 uM zinc acetate, 200 nM TF, 25 C, 1 h; high values mean tight binding). Conditions: protein: recombinant; tags: N-terminal polyhistidine and DsRed monomer fusion (pET32a); label: CyDye5-dUTP incorporated in the synthesized complementary strand; 3' TTTTT single-stranded linker to array surface; dsDNA, one strand shown.
How it was run: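 In PBS with 2% BSA, salmon testes DNA and 50 µM zinc acetate, 200 nM protein was incubated on a custom Agilent array at 25 °C for 1 h and then washed off. The array had been made double-stranded by primer extension with Cy5-dUTP and blocked with 2% BSA. The proteins were transcription factors fused N-terminally to polyhistidine and DsRed, expressed in E. coli BL21-CodonPlus and purified on Ni–NTA. The binding signal is per-feature fluorescence intensity (arbitrary units) from an Axon 4000B scanner.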

Sequence	binding signal
ATTTTGCTCCGATTGGTGCCTTTTTCTCCTGGAATTTTGTCGGAGTCACCTAGTGCAG	9460 fluorescence intensity (a.u.)
ATGGGAGGGCAAGAAAACTAGTAAGGGGCATGGAAAGTCTCGGAGTCACCTAGTGCAG	8620 fluorescence intensity (a.u.)
GCTCTCAGCTCGATCGATCGGTTGCTACAAATACCAGCCTCGGAGTCACCTAGTGCAG	8260 fluorescence intensity (a.u.)
AAAAATCTCCGTATCAACTTATCCGTATTGCCCTACCAGTCGGAGTCACCTAGTGCAG	8740 fluorescence intensity (a.u.)
CAATCTGTCGCTCTCCCGCTCCTTAATTAATTAATTAATTCGGAGTCACCTAGTGCAG	9600 fluorescence intensity (a.u.)
AATCTCCTAGGCTGTGTTTAGATCTAAACTTCCAACTTTTCGGAGTCACCTAGTGCAG	8750 fluorescence intensity (a.u.)
ACCTGGTTATTTTTTTTGTCAGTCTGGTTGTGTGGTGCAGCGGAGTCACCTAGTGCAG	8340 fluorescence intensity (a.u.)
CGGCCGCCGCCTCGTCGTCGATGAGCTCGCCATGGCGCCCCGGAGTCACCTAGTGCAG	8840 fluorescence intensity (a.u.)
GTCACTCCACTTTTCCCCACCGCCATCCACTCCCACCTCGCGGAGTCACCTAGTGCAG	8510 fluorescence intensity (a.u.)
GGCGGGAGCGGGGCGGCACTGACGCACTGTTCGATTACACCGGAGTCACCTAGTGCAG	8190 fluorescence intensity (a.u.)
GCGACAGGAACCGGCCACTCATGTACATACTACTCCAAGCCGGAGTCACCTAGTGCAG	8520 fluorescence intensity (a.u.)
GCCGAGACCTTTGCTTAGACGGCGGTTTTCCCAGCTACCTCGGAGTCACCTAGTGCAG	9320 fluorescence intensity (a.u.)
CAAACCCCACACACACAGCATCCGATATATATCTCGATCCCGGAGTCACCTAGTGCAG	8410 fluorescence intensity (a.u.)
TGTAGCGTTGGTTTCCACCCTTTTAAACATGCGTTAGATTCGGAGTCACCTAGTGCAG	8730 fluorescence intensity (a.u.)
TTCATTTTGTCCCTTTGCTCATCGTCCTGTCGGTATCCGTCGGAGTCACCTAGTGCAG	8940 fluorescence intensity (a.u.)
AGCTACGCTACGGCCCCACCCAACTGCTCTTCCTACGCGCCGGAGTCACCTAGTGCAG	8740 fluorescence intensity (a.u.)
TCCGTCTCCATCTCCTACCTCGGGCCCTGAGCACATCCCCCGGAGTCACCTAGTGCAG	8920 fluorescence intensity (a.u.)
CTTACCTGCACCAAATCGGACTGTCCAAGGTCCACAAGCTCGGAGTCACCTAGTGCAG	9350 fluorescence intensity (a.u.)
TACTACTGCTTTACAAGTTTGCTATTCTACAGTTTTCTTACGGAGTCACCTAGTGCAG	9950 fluorescence intensity (a.u.)
TGTCCGTCTCGCGCGCCGGCTGCCGCTGCACTTGCCCATGCGGAGTCACCTAGTGCAG	8140 fluorescence intensity (a.u.)
TAGATTTGACTATATTTTTTCTATCATCTCTTTCTCTAACCGGAGTCACCTAGTGCAG	8830 fluorescence intensity (a.u.)

At a glance, part of the list above.
Sequence	binding signal
TCCGTCTCCATCTCCTACCTCGGGCCCTGAGCACATCCCCCGGAGTCACCTAGTGCAG	8920 fluorescence intensity (a.u.)
CTTACCTGCACCAAATCGGACTGTCCAAGGTCCACAAGCTCGGAGTCACCTAGTGCAG	9350 fluorescence intensity (a.u.)
TACTACTGCTTTACAAGTTTGCTATTCTACAGTTTTCTTACGGAGTCACCTAGTGCAG	9950 fluorescence intensity (a.u.)

Additional results.

Sequence	binding signal
AATTTGTTCTTACTTTTGACTTTAGGATCAGGAACCATTTCGGAGTCACCTAGTGCAG	8530 fluorescence intensity (a.u.)
TGACAACGGGGAGGGGAGGATGGGGCGGCGACGACAGGGGCGGAGTCACCTAGTGCAG	15500 fluorescence intensity (a.u.)
AACAGCATCTTTGGAGTACAAACACATCTATTGTCTCGTACGGAGTCACCTAGTGCAG	8880 fluorescence intensity (a.u.)
ACCCCGCCCACCGCCGCACCGCCATCCCCAACACTCGTTGCGGAGTCACCTAGTGCAG	8330 fluorescence intensity (a.u.)
GTGTGTTTTGATGCTCATCAAGTTGATTGTAGTCATGTAACGGAGTCACCTAGTGCAG	8460 fluorescence intensity (a.u.)
GGACGCTTACGCCGTGCCCGCTCTCGTGTCACTGCCTCATCGGAGTCACCTAGTGCAG	8270 fluorescence intensity (a.u.)
AGGACGATGGGCGCGATGGGATTTGTTCTTGACTGTTTTACGGAGTCACCTAGTGCAG	12000 fluorescence intensity (a.u.)
AACTTGCGTTGACCACCCACGGGAACCATTCGTCAGATCCCGGAGTCACCTAGTGCAG	12400 fluorescence intensity (a.u.)
CTACTAGTCTTCGTCGTCCTCGTCCTCGGGCTTTCCTAGTCGGAGTCACCTAGTGCAG	11600 fluorescence intensity (a.u.)
TGTATCTCTCTTGGTTGTAGCCCGTTGCAAATCATGGGCTCGGAGTCACCTAGTGCAG	8780 fluorescence intensity (a.u.)
TCACAATTTTTCTTTCCTTTTGCGCTTTTTTCTGATTATTCGGAGTCACCTAGTGCAG	16000 fluorescence intensity (a.u.)
CCGTTATTAGCAAATATTTACTGTAGCACCATATTATCAACGGAGTCACCTAGTGCAG	8050 fluorescence intensity (a.u.)
TACTGTTGCTTCGAATATTGCTTGTTTATTATTCCAAATTCGGAGTCACCTAGTGCAG	9240 fluorescence intensity (a.u.)
TCATTTTCTAATGTTGTGTTGTTTTCTGGGAAATGTAGGACGGAGTCACCTAGTGCAG	8890 fluorescence intensity (a.u.)
GGATTATTGCTTGGTCTTCTTGTTCATGGGCTTATAAATACGGAGTCACCTAGTGCAG	8960 fluorescence intensity (a.u.)
CGGATTCTTCTTTACGTCACGTATTGCATGCCCCTCTTATCGGAGTCACCTAGTGCAG	9260 fluorescence intensity (a.u.)
CACGTTGCTCATTCTAATCAATATCCTGCCCAAACAGTTTCGGAGTCACCTAGTGCAG	10500 fluorescence intensity (a.u.)
GGCGGCGGGTTGAGGAGGTGTGCTAGCTAGCGGCGGCGGCCGGAGTCACCTAGTGCAG	8730 fluorescence intensity (a.u.)
CAATAGGTGGGCTTGTTGTTAATGTCATTGGACTGGTTTTCGGAGTCACCTAGTGCAG	10500 fluorescence intensity (a.u.)
GCCGGCCCATCGTGTCCGCTATCTTCTAACAGGCCGGCCTCGGAGTCACCTAGTGCAG	9360 fluorescence intensity (a.u.)
GCAGCAGACAACGTGGGTGTGGTGCGCGGGAGGGTGGGCCCGGAGTCACCTAGTGCAG	8510 fluorescence intensity (a.u.)
